{
  "sequences": {"note": "Chains of the proteins cited; added tags and fusions are not shown. Lines headed by an entry give the natural chain unless they say otherwise; changes in a name come on top.", "UniProt P11362": "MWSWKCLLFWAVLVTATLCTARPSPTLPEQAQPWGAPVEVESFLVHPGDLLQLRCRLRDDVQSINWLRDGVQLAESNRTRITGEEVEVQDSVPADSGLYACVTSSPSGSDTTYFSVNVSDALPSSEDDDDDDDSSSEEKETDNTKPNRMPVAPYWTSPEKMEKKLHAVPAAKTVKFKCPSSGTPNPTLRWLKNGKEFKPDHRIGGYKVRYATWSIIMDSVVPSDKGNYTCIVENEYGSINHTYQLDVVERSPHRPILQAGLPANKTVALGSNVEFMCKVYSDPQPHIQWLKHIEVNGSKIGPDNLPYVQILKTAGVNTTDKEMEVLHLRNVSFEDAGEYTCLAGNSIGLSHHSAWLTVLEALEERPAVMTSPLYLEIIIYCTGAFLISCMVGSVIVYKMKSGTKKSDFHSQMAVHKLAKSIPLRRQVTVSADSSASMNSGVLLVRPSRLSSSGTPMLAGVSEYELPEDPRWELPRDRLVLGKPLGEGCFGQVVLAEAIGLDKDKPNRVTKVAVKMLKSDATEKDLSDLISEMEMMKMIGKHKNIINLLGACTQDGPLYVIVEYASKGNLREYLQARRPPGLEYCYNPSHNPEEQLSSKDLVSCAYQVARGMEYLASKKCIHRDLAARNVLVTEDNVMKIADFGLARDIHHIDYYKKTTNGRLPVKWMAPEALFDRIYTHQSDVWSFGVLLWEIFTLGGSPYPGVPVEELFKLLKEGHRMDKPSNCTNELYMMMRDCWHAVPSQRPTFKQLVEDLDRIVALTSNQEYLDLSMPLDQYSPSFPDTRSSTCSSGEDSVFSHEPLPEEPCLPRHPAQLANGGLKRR"},
  "source": "paper PMC5454382",
  "target": "GST-tagged FGFR1 1-310 truncated fragment (human) (UniProt P11362)",
  "assay": "pull-down; recombinant proteins from E. coli (Supplementary Fig. 3d,e); which partner was immobilised is not given; both purified",
  "note": "Results are given in words; binding and its absence hold for the method and conditions named.",
  "data": [
    {"substance": "His-tagged hCINAP (from UniProt Q9Y3D8 1-172) (enzyme)", "values": [
      {"measurement": "binding", "value": "no binding"}
    ]}
  ]
}
